This note sets out measurements from the supplement of paper PMC6289059.

Molecules are shown by their SMILES. “And” between values parts separate entries of the source, which are not always exact repeats. Identical values can stand only once. Some of the results follow. Single values are uncertain, as repeats are few or missing.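 The cells are hepatocyte-like cells grown from human stem cells in which the DGUOK gene was disrupted by CRISPR, a model of liver mtDNA depletion syndrome. Each well's ATP signal was scored against the other wells on its plate, and a drug counted as a primary hit when its score was 3 or higher.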

The test system of the assay is DGUOK Δ14/Δ5 iPSC-derived hepatocyte-like cells (SV20). Put plainly: ATP level (CellTiter-Glo luminescence) Z score relative to plate distribution, under 2-DG glycolysis block; higher = more cellular ATP (rescue of mitochondrial ATP production). The note with it: 5 µM; treatment time: day 15 to day 20 of differentiation (5 days); 2-deoxy-D-glucose: 20 mM for 24 h before assay.
With `COc1ccc2c(c1OC)OC[C@@H](c1ccc(OC)c(OC)c1OC)C2`, the ATP level is inactive: -1.69.

For `Cc1ccnc2c1NC(=O)c1cccnc1N2C1CC1`, the ATP level was inactive: 1.46.

In the case of `CN(C)CCC=C1c2ccccc2CCc2ccccc21`, the ATP level is inactive: -6.21.

Consider `C#C[C@]1(O)CC[C@H]2[C@@H]3CCc4cc(OC5CCCC5)ccc4[C@H]3CC[C@@]21C`, for which the ATP level was inactive: -1.42.

For `Cc1[nH]c(=O)c(C#N)cc1-c1ccncc1`, the ATP level is active: 3.16.

In the case of `COC(=O)C[C@H]1C(C)(C)C(=O)[C@@H]2CC3=C(CC[C@]4(C)C3=CC(=O)O[C@H]4c3ccoc3)[C@@]1(C)C2=O`, the ATP level was inactive: -2.15.

For the molecule `C=C1C(=O)[C@]23[C@H](CC[C@@H]1[C@@H]2O)[C@]12CO[C@@]3(O)[C@H](O)[C@H]1C(C)(C)CC[C@@H]2O`, the ATP level is inactive: -0.889.

Take `O=C(Nc1ccccc1)c1ccccc1O`: the ATP level is inactive: -2.4.

Take `COCC1=C(C(=O)OC(C)OC(=O)OC(C)C)N2C(=O)[C@@H](NC(=O)/C(=N\OC)c3csc(N)n3)[C@H]2SC1` (stereo partly drawn): the ATP level was inactive: -3.42.

`CCN(CC)CCOC(=O)C(c1ccccc1)C1CCCCC1` (stereo not drawn): the ATP level is inactive: -0.433.

On to `O=C(CCCN1CCC(O)(c2ccc(Br)cc2)CC1)c1ccc(F)cc1`, for which the ATP level is inactive: -1.86.

As to `CNCC[C@H](Oc1cccc2ccccc12)c1cccs1`, the ATP level was inactive: -9.47.

With `CC(=O)c1ccc2c(c1)N(CCCN1CCC(CCO)CC1)c1ccccc1S2`, the ATP level is inactive: -11.7.

As to `CC(C)CCCC(C)C1CCC2C3CCC4CCCCC4(C)C3CCC12C` (stereo not drawn), the ATP level was inactive: -1.53.

With `CCCCC(CC)CN1CN(CC(CC)CCCC)CC(C)(N)C1` (stereo not drawn), the ATP level was inactive: 1.95.

Take `COc1cc2c(cc1OC)C(=O)C(CC1CCN(Cc3ccccc3)CC1)C2` (stereo not drawn): the ATP level is inactive: 0.647.

Turning to `CCOc1ccc(C(=O)c2ccc(OC)c(O)c2O)cc1`, the ATP level is inactive: 0.745.

Take `COc1ccc(Cc2cnc(N)nc2N)cc1OC`: the ATP level is inactive: 0.0464.

Regarding `N=C(N)NC(=O)c1nc(Cl)c(N)nc1N`, the ATP level was inactive: -0.462.

With `CCCCOC(=O)c1ccc(N)cc1`, the ATP level is inactive: -5.94.

For the molecule `O=C(Nc1ccc(C(=O)O)c(O)c1)c1ccccc1`, the ATP level was inactive: 1.33.

Take `CC[C@H]1OC(=O)[C@H](C)[C@@H](O[C@H]2C[C@@](C)(OC)[C@@H](O)[C@H](C)O2)[C@H](C)[C@@H](O[C@@H]2O[C@H](C)C[C@H](N(C)C)[C@H]2O)[C@](C)(OC)C[C@@H](C)C(=O)[C@H](C)[C@@H](O)[C@]1(C)O`: the ATP level was inactive: -2.19.

Consider `C[C@H]1COC2=C1C(=O)C(=O)c1c2ccc2c1CCCC2(C)C`, for which the ATP level is inactive: -0.863.

Take `CCCCC1=NC2(CCCC2)C(=O)N1Cc1ccc(-c2ccccc2-c2nnn[nH]2)cc1`: the ATP level is active: 6.19.

Turning to `NS(=O)(=O)c1cc2c(cc1Cl)N=CNS2(=O)=O`, the ATP level was inactive: -0.195.

For the molecule `CNS(=O)(=O)Cc1ccc2[nH]cc(CCN(C)C)c2c1`, the ATP level is inactive: -3.51.

With `O=C(CCCl)NCc1ccccc1`, the ATP level was inactive: 0.179.

As for `CN[C@H](CC(C)C)C(=O)N[C@H]1C(=O)N[C@@H](CC(N)=O)C(=O)N[C@H]2C(=O)N[C@H]3C(=O)N[C@H](C(=O)N[C@H](C(=O)O)c4cc(O)cc(O)c4-c4cc3ccc4O)[C@H](O)c3ccc(c(Cl)c3)Oc3cc2cc(c3O[C@@H]2O[C@H](CO)[C@@H](O)[C@H](O)[C@H]2O[C@H]2C[C@](C)(N)[C@H](O)[C@H](C)O2)Oc2ccc(cc2Cl)[C@H]1O`, the ATP level is inactive: -9.01.

Take `CCC(CCC(C)C1CCC2C3CCC4CC(O)CCC4(C)C3CCC12C)C(C)C` (stereo not drawn): the ATP level was inactive: 2.08.

In the case of `NC(=O)c1ncn([C@@H]2O[C@H](CO)[C@@H](O)[C@H]2O)n1`, the ATP level was inactive: -0.195.

Consider `CCOc1ccc2c(c1)C(C)=CC(C)(C)N2`, for which the ATP level was inactive: -2.24.

As for `C#CCCCCCCCCCCCC(O)CC(O)CO.C=CCCCCCCCCCCCC(O)CC(O)CO` (stereo not drawn), the ATP level is active: 5.12.

Turning to `CCOC(=O)[C@H](CCc1ccccc1)N[C@@H](C)C(=O)N1[C@H](C(=O)O)C[C@@H]2CCC[C@@H]21`, the ATP level was inactive: 0.000716.

For the molecule `CC1=CC2C(C(C)C)CCC(C)(O)C2CC1` (stereo not drawn), the ATP level is inactive: 1.6.

For the molecule `CC(C)COCC(CN(Cc1ccccc1)c1ccccc1)N1CCCC1` (stereo not drawn), the ATP level was inactive: -10.1.

With `CC(=O)CC(=O)CCC(=O)O`, the ATP level was inactive: -2.72.

As for `O=C(O)c1cc(=O)c2ccccc2o1`, the ATP level is inactive: -1.31.

Regarding `COc1ccc2oc(-c3ccccc3)c(OC)c(=O)c2c1`, the ATP level was inactive: 1.46.

For the molecule `COc1ccc2ccc(=O)oc2c1`, the ATP level is inactive: 1.93.

Consider `Cc1cc(C2CCCCC2)n(O)c(=O)c1`, for which the ATP level is inactive: -24.8.

Consider `CC(C)(N=NC(C)(C)C(=N)N)C(=N)N`, for which the ATP level is inactive: 0.276.

Take `O=C(O)c1cc2cc(Cl)ccc2[nH]1`: the ATP level is inactive: 0.34.

For `CC1(C)CC2C1CCC1(C)OC2(C)CCC1O` (stereo not drawn), the ATP level was inactive: -1.78.

Consider `CN(C)CC(c1ccc(O)cc1)C1(O)CCCCC1` (stereo not drawn), for which the ATP level is inactive: 1.32.

Regarding `NC(=O)[C@@H]1CCCN1C(=O)[C@H](Cc1c[nH]cn1)NC(=O)[C@@H]1CCC(=O)N1`, the ATP level is active: 3.27.

Regarding `COc1c(N2CCNC(C)C2)c(F)cc2c(=O)c(C(=O)O)cn(C3CC3)c12` (stereo not drawn), the ATP level is inactive: -3.91.

In the case of `N[C@@H](C(=O)O)[C@@H](O)[C@H](O)[C@H](O)CO`, the ATP level was inactive: -0.775.

Turning to `O=C(c1ccccc1)c1ccc2n1CCC2C(=O)O` (stereo not drawn), the ATP level was inactive: -8.77.

With `OCc1ccccc1O`, the ATP level was inactive: -0.16.

For `CN1Cc2c(N)cccc2C(c2ccccc2)C1` (stereo not drawn), the ATP level is inactive: -16.3.

Turning to `FC(F)(F)COCC(F)(F)F`, the ATP level was inactive: 1.72.

Regarding `CCN[C@@H]1C[C@H](N)[C@@H](O[C@H]2OC(CN)=CC[C@H]2N)[C@H](O)[C@H]1O[C@H]1OC[C@](C)(O)[C@H](NC)[C@H]1O`, the ATP level was inactive: 1.78.

As to `CC(C)(O)c1ccccc1CC[C@@H](SCC1(CC(=O)O)CC1)c1cccc(/C=C/c2ccc3ccc(Cl)cc3n2)c1`, the ATP level was inactive: 0.688.

On to `C=C(C)[C@@H]1CC=C(CO)CC1`, for which the ATP level is inactive: -2.08.

Consider `CC(=O)Oc1cccc(C)c1` [meta-CRESYL ACETATE], for which the ATP level is inactive: 0.325.

Consider `CCNC(=O)/C=C/c1cccc(Br)c1`, for which the ATP level was inactive: 0.585.

For the molecule `C=CCCCCCCCCC(=O)[O-].C=CCCCCCCCCC(=O)[O-].[Zn+2]`, the ATP level was inactive: 2.91.

For the molecule `COC(=O)Nc1nc2cc([S+]([O-])c3ccccc3)ccc2[nH]1` (stereo not drawn), the ATP level was inactive: -3.1.

In the case of `O=c1cc(-c2ccccc2)oc2cccc(O)c12`, the ATP level is inactive: 0.31.

As for `CNc1ccccc1C(=O)N1CCc2c([nH]c3ccccc23)C1=O`, the ATP level was inactive: -4.97.

Take `COc1ccc2c(=O)c(CC(=O)O)coc2c1`: the ATP level was inactive: 0.731.

With `COc1ccccc1OCC(O)COC(N)=O` (stereo not drawn), the ATP level is inactive: 0.693.

With `Nc1c2c(nc3ccccc13)CCCC2O` (stereo not drawn), the ATP level is inactive: -1.31.

With `Nc1ccn([C@@H]2CS[C@H](CO)O2)c(=O)n1`, the ATP level was inactive: 1.45.

As to `Cc1cc(N)c2ccccc2[n+]1CCCCCCCCCC[n+]1c(C)cc(N)c2ccccc21`, the ATP level is inactive: -8.85.

In the case of `CO/N=C(\C(=O)N[C@@H]1C(=O)N2C(C(=O)OC(C)OC(C)=O)=C(COC(N)=O)CS[C@H]12)c1ccco1` (stereo partly drawn), the ATP level was inactive: 0.177.

Regarding `COc1cc(O)ccc1C(C)=O`, the ATP level was inactive: 0.797.

`CC(=O)OCC(=O)[C@H]1CC[C@H]2[C@@H]3CCC4=CC(=O)CC[C@]4(C)[C@H]3CC[C@]12C`: the ATP level is inactive: -1.4.

Regarding `C#C[C@]1(O)CC[C@H]2[C@@H]3CCC4=CC(=O)CC[C@@H]4[C@H]3CC[C@@]21CC`, the ATP level was inactive: 0.494.

Consider `CC(C)CCCC(C)NC(C)C` (stereo not drawn), for which the ATP level is inactive: 2.24 and inactive: 1.32.

In the case of `N=C(N)NCCN1CCCCCCC1`, the ATP level is inactive: -4.34.

Turning to `CC1(C)[C@@H](OC(=O)CCC(=O)O)CC[C@]2(C)[C@H]3C(=O)C=C4[C@@H]5C[C@@](C)(C(=O)O)CC[C@]5(C)CC[C@@]4(C)[C@]3(C)CC[C@@H]12`, the ATP level was inactive: 1.09.

On to `CC(CN(C)C)CN1c2ccccc2Sc2ccccc21` (stereo not drawn), for which the ATP level was inactive: -0.761.

Regarding `C=CCOC(Cn1ccnc1)c1ccc(Cl)cc1Cl` (stereo not drawn), the ATP level is inactive: -3.33.

With `O=C(/C=C/c1ccc(O)c(O)c1)O[C@@H]1C[C@](O)(C(=O)O)C[C@@H](O)[C@H]1O`, the ATP level was inactive: 2.09.

For `CC[C@@H](CO)NCCN[C@@H](CC)CO`, the ATP level is inactive: -1.09.

Consider `C[C@]1(Cn2ccnn2)[C@H](C(=O)O)N2C(=O)C[C@H]2S1(=O)=O`, for which the ATP level was inactive: 1.05.

As to `CC(=O)OCC(=O)[C@@]1(OC(C)=O)[C@@H](C)C[C@H]2[C@@H]3C[C@H](F)C4=CC(=O)C=C[C@]4(C)[C@@]3(F)[C@@H](O)C[C@@]21C`, the ATP level is inactive: -17.8.

Consider `Nc1ccccc1C(=O)CC(N)C(=O)O` (stereo not drawn), for which the ATP level is inactive: 0.904.

On to `CCCCC/C=C\C/C=C\C/C=C\C/C=C\CCCC(=O)O`, for which the ATP level is inactive: -1.7.

In the case of `CCN(CC)CCOCCOC(=O)C(CC)(CC)c1ccccc1`, the ATP level is inactive: 0.874.

With `CCCOc1ccc(C(=O)OCCN(CC)CC)cc1N`, the ATP level was inactive: 1.68.

Take `C=CCSCC1Nc2cc(Cl)c(S(N)(=O)=O)cc2S(=O)(=O)N1` (stereo not drawn): the ATP level is inactive: 1.09.

Take `Cc1cc(-c2ccc(/N=N/c3ccc4c(S(=O)(=O)O)cc(S(=O)(=O)O)c(N)c4c3O)c(C)c2)ccc1/N=N/c1ccc2c(S(=O)(=O)O)cc(S(=O)(=O)O)c(N)c2c1O`: the ATP level was inactive: -0.332.

As to `c1ccc(CN(CC2=NCCN2)c2ccccc2)cc1`, the ATP level was inactive: -0.339.

As for `NC(=O)NS(=O)(=O)c1ccc(N)cc1`, the ATP level is inactive: 0.774.

Turning to `CC(=O)N(CC(O)CN(C(C)=O)c1c(I)c(C(=O)NCC(O)CO)c(I)c(C(=O)NCC(O)CO)c1I)c1c(I)c(C(=O)NCC(O)CO)c(I)c(C(=O)NCC(O)CO)c1I` (stereo not drawn), the ATP level is inactive: -0.0346.

With `CCCCCCCCCCCCCCCCOP(=O)([O-])OCC[N+](C)(C)C`, the ATP level was inactive: -3.08.
